{"sequences": {"note": "Protein sequences, listed by entry. Tags and fused reporters are not part of them.", "UniProt Q8NER1, whole entry": "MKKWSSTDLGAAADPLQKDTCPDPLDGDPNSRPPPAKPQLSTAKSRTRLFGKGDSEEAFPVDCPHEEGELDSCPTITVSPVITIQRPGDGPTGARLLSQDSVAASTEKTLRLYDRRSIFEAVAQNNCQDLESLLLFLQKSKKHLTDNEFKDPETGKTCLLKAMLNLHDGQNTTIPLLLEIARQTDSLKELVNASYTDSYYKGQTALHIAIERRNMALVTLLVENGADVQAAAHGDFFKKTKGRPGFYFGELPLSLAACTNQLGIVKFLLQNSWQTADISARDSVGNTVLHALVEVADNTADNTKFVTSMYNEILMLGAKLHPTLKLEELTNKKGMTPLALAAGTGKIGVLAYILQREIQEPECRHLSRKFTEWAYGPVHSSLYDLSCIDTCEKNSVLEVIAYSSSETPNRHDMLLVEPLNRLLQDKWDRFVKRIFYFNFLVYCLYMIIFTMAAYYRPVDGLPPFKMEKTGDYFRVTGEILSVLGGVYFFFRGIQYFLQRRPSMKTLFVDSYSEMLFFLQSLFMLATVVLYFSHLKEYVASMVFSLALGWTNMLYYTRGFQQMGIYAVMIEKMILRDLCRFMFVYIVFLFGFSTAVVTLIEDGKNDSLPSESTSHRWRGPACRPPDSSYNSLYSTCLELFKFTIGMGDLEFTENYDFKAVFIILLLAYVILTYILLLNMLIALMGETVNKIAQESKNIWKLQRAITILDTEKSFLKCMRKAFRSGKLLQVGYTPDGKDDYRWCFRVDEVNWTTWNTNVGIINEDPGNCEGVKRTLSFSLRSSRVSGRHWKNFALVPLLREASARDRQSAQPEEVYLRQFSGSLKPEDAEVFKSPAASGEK"}, "source": "patent US20070161637A1", "about": "“Substituted pyridin-2-ylamine analogues” (Neurogen Corporation, priority 2003, published 2007)", "target": "human capsaicin receptor (Homo sapiens, UniProt Q8NER1)", "assay": "Calcium mobilization assay, determination of antagonist activity (Example 6)", "type": "cell-based", "details": "concentration giving 50% decrease in the fluorescence response of cells expressing human capsaicin receptor exposed to capsaicin", "note": "The structures given here were assigned with low confidence; some may be wrong.", "data": [{"smiles": "CC(C)(C)c1ccc(Nc2nc(Cl)nc(OCc3ccccc3Cl)n2)cc1", "values": [{"measurement": "IC50", "value": "< 1000", "unit": "nM"}]}]}
